{"source": "PubChem BioAssay AID493246 (Drosophila RNAi Screening Center, 2011)", "test": "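Genes fly cells need to grow and stay alive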 (primary screen)", "cell system": "Drosophila Kc and S2R+ cells", "knock-down reagent": "long dsRNA against Drosophila genes", "read-out": "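Cell number per well after knock-down, printed as raw plate values; calls were based on per-plate z-scores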", "direction": "Kc cell number and S2R+ cell number: higher = more cells remaining", "rule for the call": "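Active when the per-plate z-score of cell number is 3 or more in the direction of fewer cells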", "note": "The deposit covers about 21,000 reagents; shown is a random part of those that have a named target and a result. In the full data, 429 (2%) are marked active. 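Values are raw and not normalised between plates; calls rest on per-plate z-scores that were not deposited.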 Not given: the amount of reagent, the time to read-out."}
{"gene": "CG1092", "dsRNA": "DRSC12151", "Kc cell number, rep 1": 1.52e6, "Kc cell number, rep 2": 1.56e6, "S2R+ cell number, rep 1": 1.31e6, "S2R+ cell number, rep 2": 1.38e6, "Outcome": "inactive"}
{"gene": "mRpS2", "dsRNA": "DRSC00550", "Kc cell number, rep 1": 1.66e6, "Kc cell number, rep 2": 1.72e6, "S2R+ cell number, rep 1": 1.18e6, "S2R+ cell number, rep 2": 1.38e6, "Outcome": "inactive"}
{"gene": "bchs", "dsRNA": "DRSC03126", "Kc cell number, rep 1": 1.45e6, "Kc cell number, rep 2": 1.30e6, "S2R+ cell number, rep 1": 1.12e6, "S2R+ cell number, rep 2": 1.25e6, "Outcome": "inactive"}
{"gene": "CG6287", "dsRNA": "DRSC02947", "Kc cell number, rep 1": 1.39e6, "Kc cell number, rep 2": 1.50e6, "S2R+ cell number, rep 1": 1.28e6, "S2R+ cell number, rep 2": 1.23e6, "Outcome": "inactive"}
{"gene": "CG1946", "dsRNA": "DRSC06804", "Kc cell number, rep 1": 1.65e6, "Kc cell number, rep 2": 1.73e6, "S2R+ cell number, rep 1": 1.34e6, "S2R+ cell number, rep 2": 1.57e6, "Outcome": "inactive"}
{"gene": "vir", "dsRNA": "DRSC04377", "Kc cell number, rep 1": 1.59e6, "Kc cell number, rep 2": 1.66e6, "S2R+ cell number, rep 1": 1.21e6, "S2R+ cell number, rep 2": 1.17e6, "Outcome": "inactive"}
{"gene": "lambdaTry", "dsRNA": "DRSC06137", "Kc cell number, rep 1": 1.56e6, "Kc cell number, rep 2": 1.53e6, "S2R+ cell number, rep 1": 1.18e6, "S2R+ cell number, rep 2": 1.27e6, "Outcome": "inactive"}
{"gene": "alrm", "dsRNA": "DRSC14436", "Kc cell number, rep 1": 1.70e6, "Kc cell number, rep 2": 1.85e6, "S2R+ cell number, rep 1": 1.06e6, "S2R+ cell number, rep 2": 1.17e6, "Outcome": "inactive"}
{"gene": "CG31102", "dsRNA": "DRSC14260", "Kc cell number, rep 1": 1.42e6, "Kc cell number, rep 2": 1.44e6, "S2R+ cell number, rep 1": 1.06e6, "S2R+ cell number, rep 2": 1.18e6, "Outcome": "inactive"}
{"gene": "CG15408", "dsRNA": "DRSC00423", "Kc cell number, rep 1": 1.46e6, "Kc cell number, rep 2": 1.41e6, "S2R+ cell number, rep 1": 1.10e6, "S2R+ cell number, rep 2": 1.28e6, "Outcome": "inactive"}
{"gene": "ghi", "dsRNA": "DRSC08985", "Kc cell number, rep 1": 1.71e6, "Kc cell number, rep 2": 1.89e6, "S2R+ cell number, rep 1": 1.23e6, "S2R+ cell number, rep 2": 1.37e6, "Outcome": "inactive"}
{"gene": "polo", "dsRNA": "DRSC11384", "Kc cell number, rep 1": 1.37e6, "Kc cell number, rep 2": 1.52e6, "S2R+ cell number, rep 1": 1.04e6, "S2R+ cell number, rep 2": 1.17e6, "Outcome": "inactive"}
{"gene": "Caf1-55", "dsRNA": "DRSC16596", "Kc cell number, rep 1": 1.47e6, "Kc cell number, rep 2": 1.54e6, "S2R+ cell number, rep 1": 1.16e6, "S2R+ cell number, rep 2": 1.20e6, "Outcome": "inactive"}
{"gene": "CG8630", "dsRNA": "DRSC16441", "Kc cell number, rep 1": 8.95e5, "Kc cell number, rep 2": 9.54e5, "S2R+ cell number, rep 1": 1.03e6, "S2R+ cell number, rep 2": 1.16e6, "Outcome": "inactive"}
{"gene": "CG11679", "dsRNA": "DRSC19415", "Kc cell number, rep 1": 4.56e5, "S2R+ cell number, rep 1": 7.11e5, "Outcome": "inactive"}
{"gene": "Osi6", "dsRNA": "DRSC12128", "Kc cell number, rep 1": 1.46e6, "Kc cell number, rep 2": 1.50e6, "S2R+ cell number, rep 1": 1.27e6, "S2R+ cell number, rep 2": 1.40e6, "Outcome": "inactive"}
{"gene": "xmas-1 (retired record)", "dsRNA": "DRSC20386", "Kc cell number, rep 1": 1.56e6, "Kc cell number, rep 2": 1.59e6, "S2R+ cell number, rep 1": 1.09e6, "S2R+ cell number, rep 2": 1.24e6, "Outcome": "inactive"}
{"gene": "corn", "dsRNA": "DRSC11021", "Kc cell number, rep 1": 1.33e6, "Kc cell number, rep 2": 1.38e6, "S2R+ cell number, rep 1": 1.28e6, "S2R+ cell number, rep 2": 1.20e6, "Outcome": "inactive"}
{"gene": "Prosalpha3T", "dsRNA": "DRSC15226", "Kc cell number, rep 1": 1.59e6, "Kc cell number, rep 2": 1.55e6, "S2R+ cell number, rep 1": 9.48e5, "S2R+ cell number, rep 2": 1.14e6, "Outcome": "inactive"}
{"gene": "CG5250", "dsRNA": "DRSC15752", "Kc cell number, rep 1": 1.41e6, "Kc cell number, rep 2": 1.41e6, "S2R+ cell number, rep 1": 1.13e6, "S2R+ cell number, rep 2": 1.26e6, "Outcome": "inactive"}
{"gene": "CG18609", "dsRNA": "DRSC06775", "Kc cell number, rep 1": 1.61e6, "Kc cell number, rep 2": 1.68e6, "S2R+ cell number, rep 1": 1.26e6, "S2R+ cell number, rep 2": 1.40e6, "Outcome": "inactive"}

2 entries already listed, ordered by “Kc cell number, rep 2”, descending.
{"gene": "CG18609", "dsRNA": "DRSC06775", "Kc cell number, rep 1": 1.61e6, "Kc cell number, rep 2": 1.68e6, "S2R+ cell number, rep 1": 1.26e6, "S2R+ cell number, rep 2": 1.40e6, "Outcome": "inactive"}
{"gene": "CG5250", "dsRNA": "DRSC15752", "Kc cell number, rep 1": 1.41e6, "Kc cell number, rep 2": 1.41e6, "S2R+ cell number, rep 1": 1.13e6, "S2R+ cell number, rep 2": 1.26e6, "Outcome": "inactive"}
